# Experimental data taken from PubChem BioAssay AID2396 (Broad Institute, 2010).
# This is one part of the list. Entries with a potency or affinity are not part of this list. Entries without a call are filed as inconclusive in the source.
# Test: T. cruzi intracellular growth in NIH3T3 host cells, beta-gal luminescent readout, cell-based dose-response confirmation (AID 2396)
# Conditions: T. cruzi beta-gal in NIH3T3, GalScreen luminescence, 90 h; at 19.5 µM (top of the series)
row,SMILES,"activity change, negative = inhibition"
1,O=C(NCC1CCCN(Cc2cccc(C(F)(F)F)c2)C1)c1ccc(F)cc1 (configuration not stated),-49.1
2,COCc1cc(CN2CCCC(CNC(=O)c3ccc(F)cc3)C2)ccc1OC (configuration not stated),-48.1
